Measured values published in publication PMC13249469, “High-throughput ligand diversification to discover chemical inducers of proximity” (Nature Chemical Biology, 2026).
These are yes or no findings as the source states them, for the method shown. Binding seen in cells or lysates may run through a third protein. Tags and fused reporters may be left off the sequences shown.

Biological target: Hpep6–BRD4(S) N140F (BD1 mutant) (UniProt O60885)
Test: split reporter; splitHaloTag in RPE1 cells with FBXO3–EGFP–cpHalo and Hpep6–BRD4s; carfilzomib pretreatment (1 h), then dHTC3 with 100 nM TAMRA-CA for 3 h; flow cytometry, TAMRA/GFP ratio normalised to DMSO

- binding: no binding (tested: 2 µM dHTC3)
B1: FBXO3–EGFP–cpHalo (protein, UniProt Q9UK99 1-471)
chain: MAAMETETAPLTLESLPTDPLLLILSFLDYRDLINCCYVSRRLSQLSSHDPLWRRHCKKYWLISEEEKTQKNQCWKSLFIDTYSDVGRYIDHYAAIKKAWDDLKKYLEPRCPRMVLSLKEGAREEDLDAVEAQIGCKLPDDYRCSYRIHNGQKLVVPGLLGSMALSNHYRSEDLLDVDTAAGGFQQRQGLKYCLPLTFCIHTGLSQYIAVEAAEGRNKNEVFYQCPDQMARNPAAIDMFIIGATFTDWFTSYVKNVVSGGFPIIRDQIFRYVHDPECVATTGDITVSVSTSFLPELSSVHPPHYFFTYRIRIEMSKDALPEKACQLDSRYWRITNAKGDVEEVQGPGVVGEFPIISPGRVYEYTSCTTFSTTSGYMEGYYTFHFLYFKDKIFNVAIPRFHMACPTFRVSIARLEMGPDEYEEMEEEEEEEEEEDEDDDSADMDESDEDDEEERRRRVFDVPIRRRRCSRLF
